# Data published in PubChem BioAssay AID1487 (National Center for Advancing Translational Sciences (NCATS), 2009).
# The list shows a part of the results. The main result of the screen is listed elsewhere. These columns were measured beside it and carry no call. Compounds called inactive in the main read-out are mostly missing here. The note in brackets gives the kind of curve behind each potency; many fits are weak.
# Assay: qHTS Assay for Modulators of Lamin A Splicing
# Settings: HeLa LMNA splicing GFP/RFP minigene ratio, 48 h
# Outline: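 S3 HeLa stable clones carrying a lamin A-EGFP splicing minigene plus DsRed2 were seeded at 600 cells/well in Opti-MEM with 2% FBS, pin-dosed and incubated 48 h at 37°C. Acumen cytometry (488 nm) gave the GFP/RFP total-intensity ratio.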
# [1] = measured here: GFP splicing reporter channel
# [2] = measured here: RFP viability control channel
SMILES,AC50 [1],AC50 [2]
C=CCc1c(C)nc(-c2ccccc2)nc1N/N=C/c1ccncc1,"5.01 µM [falling, single point]",
Cc1nn(C(=O)c2cccc([N+](=O)[O-])c2)c(C)c1Sc1ccccc1,"0.891 µM [rising, partial curve, poor fit]","4.47 µM [rising, full curve]"
Cc1cc(C)cc(N2C(=O)N(CC(=O)c3ccc(Br)cc3)c3ccccc3S2(=O)=O)c1,"0.1 µM [falling, full curve]",
CCc1cc2c(=O)c(-c3nc4ccccc4n3C)c(C)oc2c(CN2CCOCC2)c1O,,"12.6 µM [rising, partial curve]"
Cc1cc(C)nc(SCc2nnc(SCC#N)n2-c2cccc(Cl)c2)n1,"10 µM [rising, partial curve, poor fit]","8.91 µM [rising, partial curve]"
COc1cccc(C(=O)C2CCCN(C(=O)c3ccc(C#CC(C)(C)O)cc3)C2)c1 (configuration not stated),,"12.6 µM [falling, partial curve, poor fit]"
CS(=O)(=O)Nc1ccc(C2=NN(C(=O)C3CCCCC3)C(c3cccs3)C2)cc1 (configuration not stated),,"14.1 µM [rising, single point]"
Cc1ccc(CCCOC(=O)C[N+]2(C)CCCCC2)cc1,,"0.316 µM [falling, full curve, poor fit]"
CN(C)c1cccc(C(=O)OCC(=O)N2CCc3ccccc3C2)c1,"0.01 µM [rising, full curve, poor fit]",
COc1cc(NS(C)(=O)=O)ccc1Nc1c2ccccc2nc2ccccc12,"5.62 µM [falling, partial curve]","35.5 µM [falling, partial curve, poor fit]"
O=c1[nH]c(=S)[nH]c2c1C(c1cc([N+](=O)[O-])c(N3CCOCC3)cc1N1CCOCC1)O2 (configuration not stated),"15.8 µM [falling, partial curve, poor fit]",
Fc1cccc(COc2ccccc2C(=S)N2CCCC2)c1,,"4.47 µM [rising, single point]"
COc1cc(/C=N/NC(=O)COc2cc(C)cc(C)c2)ccc1OS(=O)(=O)c1ccc(C)cc1,,"7.94 µM [rising, partial curve]"
CCc1ccc(-n2nc(C)c3c(C(=O)Nc4cc(OC)cc(OC)c4)cc(C)nc32)cc1,,"0.00316 µM [falling, full curve, poor fit]"
COCCNC(=S)N/N=C(\C)c1ccccc1O,"20 µM [rising, partial curve, poor fit]","14.1 µM [rising, single point]"
Cc1nn(-c2ccccc2)c(Cl)c1C(=O)OC(C)C(=O)Nc1ccc2c(c1)OCO2 (configuration not stated),"11.2 µM [rising, single point]","25.1 µM [rising, single point]"
Cc1cc(C(=O)Nn2c(-c3ccc(Br)cc3)nc3ccccc3c2=O)ccc1[N+](=O)[O-],,"25.1 µM [rising, partial curve]"
O=C(CSC1=Nc2ccccc2C2=NC(Cc3ccccc3)C(=O)N12)Nc1ccccc1F (configuration not stated),"2.51 µM [rising, partial curve, poor fit]","3.16 µM [rising, full curve, poor fit]"
COc1ccc(C(=O)N(Cc2ccccc2)Cc2cc3cc4c(cc3[nH]c2=O)OCCO4)cc1,,"2.51 µM [falling, full curve, poor fit]"
CN(C(=O)CSc1nc(C2CC2)nc2ccccc12)c1nc(-c2ccccc2)cs1,"5.62 µM [rising, single point]",
Cn1c(=O)[nH]c(=O)c2c1nc(N1CCCC1)n2CCCSc1nc2ccccc2o1,,"12.6 µM [rising, partial curve]"
CC(C)(C)OC(=O)N1CCC[C@H]1c1nnc(SC/C=C/c2ccccc2)o1,,"10 µM [rising, partial curve, poor fit]"
N#Cc1nc(Cc2cccc3ccccc23)oc1NCCCn1ccnc1,,"2.82 µM [rising, single point]"
Cc1ccccc1S(=O)(=O)/N=C(/c1ccccc1)N1CCOCC1,"0.398 µM [falling, single point]","0.355 µM [falling, single point]"
COc1cc(OC)cc(C(=O)NC2CCN(C(=O)N3c4ccccc4Sc4ccccc43)CC2)c1,"20 µM [rising, single point]","35.5 µM [rising, single point]"
CCOC(=O)c1sc(NC(=O)c2ccccc2F)c(C(N)=O)c1C,"0.0891 µM [rising, full curve, poor fit]","0.1 µM [rising, single point]"
N#CC(C#N)=C1C=CC=CN1/C(=C\c1ccco1)C(=O)c1ccc(-c2ccccc2)cc1,"25.1 µM [falling, single point]","20 µM [rising, partial curve, poor fit]"

SMILES,AC50 [1],AC50 [2]
CCN1CCC[C@H]1CNC(=O)c1c(OC)ccc(Br)c1OC,"12.6 µM [falling, single point]",
COc1cccc(OC)c1C(=O)NC1C(=O)N2C1SC(C)(C)C2C(=O)O (configuration not stated),,"7.08 µM [falling, partial curve]"
CC1(C)CC(=O)C(C(=S)Nc2ccccc2)=C(NC2CC(C)(C)NC(C)(C)C2)C1,"35.5 µM [falling, single point]",
O=C(Nc1ccc(Cl)c(Cl)c1)Nc1nnc(CC2=CCCCC2)s1,,"3.16 µM [rising, full curve, poor fit]"
COc1ccc(/C=C/C(=O)N2c3ccccc3Sc3ccc(C(F)(F)F)cc32)cc1,,"22.4 µM [rising, partial curve, poor fit]"
CCOC(=O)c1cccc(NC(=O)CCc2c(C)nn(-c3ccc(N4CCCCC4)nn3)c2C)c1,,"0.0398 µM [falling, full curve, poor fit]"
O=C(NCC1OCCc2ccccc21)c1ccc(NC(=O)c2ccccc2Cl)cc1 (configuration not stated),,"10 µM [rising, partial curve, poor fit]"
COc1ccc(Cn2ccc3nc(C)c(C(=O)N4CCN(c5ccc(F)cc5)CC4)cc3c2=O)cc1,"2.51 µM [falling, partial curve]","0.00891 µM [falling, full curve, poor fit]"
O=C(NCc1ccco1)c1nc(-c2ccccc2)n(-c2ccccc2)n1,"5.62 µM [rising, partial curve, poor fit]","5.62 µM [rising, partial curve]"
Cc1cc(Cl)ccc1NC(=S)NCc1ccccc1Cl,"31.6 µM [rising, single point]","31.6 µM [rising, single point]"
CCOC(=O)c1ccc2ncc(C(=O)OCC)c(NCCCN3CCOCC3)c2c1,"17.8 µM [rising, partial curve]",
c1ccc(CSc2ncn[nH]2)nc1,"35.5 µM [rising, single point]",
COC(=O)c1ccc2ccn(CC(=O)NC3CCCCC3)c2c1,,"22.4 µM [falling, partial curve, poor fit]"
Cc1cccc(OCC(=O)NCC(=O)N/N=C/c2cc(Br)ccc2OCc2ccccc2)c1,"35.5 µM [rising, single point]","35.5 µM [rising, single point]"
Oc1ccc(OCc2ccccc2)cc1,"1.41 µM [falling, full curve]","10 µM [rising, partial curve]"
COc1ccc(S(=O)(=O)N(CC(=O)Nc2ccc(S(=O)(=O)N3CCOCC3)cc2)c2ccccc2)cc1,,"35.5 µM [rising, single point]"
Cn1nc(C(C)(C)C)cc1NC(=O)Nc1cc(Cl)cc(Cl)c1,"3.98 µM [rising, partial curve, poor fit]","11.2 µM [rising, partial curve]"
CCC(=O)Nc1cccc(NC(=O)CSc2nnc(C3CC3)n2C)c1,"15.8 µM [rising, single point]",
CCCOc1ccc2c3c(c(=O)oc2c1OCCC)CCC3,"15.8 µM [rising, single point]","28.2 µM [rising, single point]"
COc1cccc(C(=O)Nc2ccc3nc(N4CCOCC4)cc(C)c3c2)c1,,"12.6 µM [rising, partial curve, poor fit]"
Cc1cc(C)nc(N/N=C/c2ccccc2OCc2ccccc2)n1,,"8.91 µM [rising, partial curve]"
O=C(Nc1ccc(S(=O)(=O)Nc2nccs2)cc1)c1ccc(F)c(S(=O)(=O)N2CCOCC2)c1,,"0.708 µM [rising, full curve, poor fit]"
COc1ccc(NC(=O)c2oc3ccccc3c2C)c(OC)c1,"11.2 µM [falling, single point]","12.6 µM [falling, single point]"
CCN(CC)C(=O)CCc1nnc(CCc2c[nH]c3ccccc23)o1,,"0.0178 µM [falling, full curve, poor fit]"
CCOC(=O)CN1C(=O)N(c2ccc(C)c(C)c2)S(=O)(=O)c2ccccc21,,"3.55 µM [falling, partial curve]"
Cc1ccccc1OCCNC(=O)/C=C/c1ccc([N+](=O)[O-])cc1,"0.794 µM [falling, single point]",
Brc1ccc(-c2nn3c(-c4ccccn4)nnc3s2)o1,,"15.8 µM [rising, single point]"

# Entries of single compounds as entered above:
# c1ccc(CSc2ncn[nH]2)nc1 is listed with AC50 [1]: 35.5 µM [rising, single point]
# COc1ccc(Cn2ccc3nc(C)c(C(=O)N4CCN(c5ccc(F)cc5)CC4)cc3c2=O)cc1 is listed with AC50 [1]: 2.51 µM [falling, partial curve]; AC50 [2]: 0.00891 µM [falling, full curve, poor fit]
